Here are results for three sequences from article PMC4847777.

For at least one entry, the source does not settle the construct or the ends of the probe. No signal at the amounts used counts as a negative. Where a protein sequence is shown, tags need not be part of it. A weaker result is weaker than the reference pair of the same experiment.

The target in this data set is T1, RamA (His6-RamA) (UniProt Q8NML3).
T1 sequence (looked up, limits assumed): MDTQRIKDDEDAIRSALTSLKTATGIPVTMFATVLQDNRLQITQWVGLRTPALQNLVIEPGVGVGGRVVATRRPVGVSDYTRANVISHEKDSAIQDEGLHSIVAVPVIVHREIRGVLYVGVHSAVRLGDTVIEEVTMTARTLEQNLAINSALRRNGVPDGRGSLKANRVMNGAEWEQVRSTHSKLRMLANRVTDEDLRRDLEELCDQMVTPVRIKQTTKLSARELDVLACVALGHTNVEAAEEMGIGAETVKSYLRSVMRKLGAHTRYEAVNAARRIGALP
Kind of data set: EMSA. As to conditions: poly[d(I-C)], 10 mM Tris, 1 mM dithioerythritol, 1 mM EDTA, 1 ug poly[d(I-C)], 10% glycerol, about 70 ng DNA, 20 min at room temperature, pH not stated, recombinant protein, protein details: His6 (pET28-ramA), probe letters rebuilt from the primers and the genome. On the technique in general: Mobility shift assays separate free from complexed probe on a gel.

In the case of “CGGGGTACCTCAACATTACGCAAAGGCATAAGCTTTATTATTCCACTCGGTGTGACATATGACCTAAAGTGCCAGTCAGTACAATCATTTAGGTCATGTCATTTACAGCTTTTCAAACAGCCCTGCTCGTGTGGTTTAGAGCAAATGCCCGCGATCTTGCGTGGCGTGATCCCAATACTTCAGCATGGGGAATTCTCCTTTCAGAGGTGATGAGCCAACAAACTCCCGTCGCGCGAGTCGAGCCGATTTGGCGTGAGTGGATGGAAAAATGGCCCACTCCGGAAGATTTCGCGAATGCGAGCACCGATGAGATTTTGCGGTCGTGGGGCAAGTTGGGCTATCCACGTAGGGCGCTGAGGTTGAAGGAATGTGCGGAGGTGATCGTCGAAAAGCATGCCGGCGAGGTGCCGGATACGGTGGAGGCGCTGCTCGCGTTGCCGGGGATCGGTGATTACACGGCGCGCGCGGTCGCGGCGTTTCATTTTGGGCAGCGCGTGCCGGTGGTCGATACGAACGTGCGTCGCGTGTAGTCGACGCGT (double strand) [Pbca (bca promoter fragment)]”, the binding result (0.8-2 ug RamA in 20 ul) is “binds”. In the case of “CGGGGTACCTCAACATTACGCAAAGGCATAAGCTTTATTATTCCACTCGGTGTGACATATGACCTAAAGTGCCAGTCAGTACAATCATTTAGGTCATGTCATTTACAGCTTTTCAAACAGCCCTGCTCGTGTGGTTTAGAGCAAATGCCCGCGATCTTGCGTGGCGTGATCCCAATACTTCAGCATGGGGAATTCTCCTTTCAGAGGTGATGAGCCAACAAACTCCCGTCGCGCGAGTCGAGCCGATTTGGCGTGAGTGGATGGAAAAATGGCCCACTCCGGAAGATTTCGCGAATGCGAGCACCGATGAGATTTTGCGG (double strand) [PF2]”, the binding result (no significant retardation up to 2 ug RamA, 20 ul) was “no binding”. Take “ACGCGAGCAGCGCCTCCACCGTATCCGGCACCTCGCCGGCATGCTTTTCGACGATCACCTCCGCACATTCCTTCAACCTCAGCGCCCTACGTGGATAGCCCAACTTGCCCCACGACCGCAAAATCTCATCGGTGCTCGCATTCGCGAAATCTTCCGGAGTGGGCCATTTTTCCATCCACTCACGCCAAATCGGCTCGACTCGCGCGACGGGAGTTTGTTGGCTCATCACCTCTGAAAGGAGAATTCCCCATGCTGAAGTATTGGGATCACGCCACGCAAGATCGCGGGCATTTGCTCTAAACCACACGAGCAGGGCTGTTTGAAAAGCTGTAAATGACATGACCTAAATGATTGTACTGACTGGCACTTTAGGTCATATGTCACACCGAGTGGAATAATAAAGCTTATGCCTTTGCGTAATGTTGAGGTACCCCG (double strand) [PF1]”: where the note is “less retardation with 2 ug RamA, 20 ul”, the binding result was “binds more weakly”.
